Reference: patent US12514251B2, “Fused heterocyclic compounds and their use as pest control agents” (priority 2020, dated 2026)
Some of these results come from one statement about several compounds together. At least one structure is not confirmed: it was looked up by name or label, or the drawing left a doubt.

System: Bemisia tabaci
Assay: Bemisia tabaci, leaf dip method
Type: in vivo
Conditions: 300 PPM; brinjal leaf dip; whitefly adults; 72 h after release; dead + moribund vs untreated control
Method: The leaf dip method was used for testing, wherein the required quantity of the compound was weighed and dissolved in a tube containing solvent solution. The tube was put on a vortex at 2000 rpm for 90 min for proper mixing, then diluted with 0.01% Triton-X solution to get the desired test concentration. Brinjal leaves were dipped in the compound solution for 10 seconds; shade dried for 20 min and then placed, with the abaxial side of the leaf up, on 4 ml of a 1% agar-agar solution in respective perforated container caps. Known numbers of freshly emerged whitefly adults were collected, using a modified aspirator, and released into a perforated container in which the cap containing the treated leaf was placed. The containers were kept in a plant growth chamber at a temperature of 25° C. and relative humidity of 70%.
Observations on dead, moribund and alive adults were recorded 72 h after the release. Percent mortality was calculated by combining dead and moribund adults and comparing the result to the one of the untreated control. The compounds 55 87 and 198 were recorded ≥70 percent mortality @ 300 PPM.

Compound | percent mortality [%]
CCS(=O)(=O)c1cc(N=S(C)(C)=O)cnc1-c1ccn2nc(C(F)(F)F)cc2n1 [Compound 87, ((5-(ethylsulfonyl)-6-(2-(trifluoromethyl)pyrazolo[1,5-a]pyrimidin-5-yl)pyridin-3-yl)imino)dimethyl-l6-sulfanone] | ≥ 70
CCS(=N)(=O)c1cc(N=S(C)(C)=O)cnc1-c1ccn2nc(C(F)(F)F)cc2n1 (centres unmarked) [Compound 198, (5-((dimethyl(oxo)-l6-sulfaneylidene)amino)-2-(2-(trifluoromethyl)pyrazolo[1,5-a]pyrimidin-5-yl)pyridin-3-yl)(ethyl)(imino)-l6-sulfanone] | ≥ 70
